Consider 25 targets from the supplement of paper PMC12819154, “High-throughput peptide-centric local stability assay extends protein–ligand identification to membrane proteins, tissues and bacteria” (Nature Structural & Molecular Biology, 2025).

Amino acid sequences for entries named in this document (tags omitted). A change or cut given only in a name is not applied to a line headed by its entry.
UniProt P97493: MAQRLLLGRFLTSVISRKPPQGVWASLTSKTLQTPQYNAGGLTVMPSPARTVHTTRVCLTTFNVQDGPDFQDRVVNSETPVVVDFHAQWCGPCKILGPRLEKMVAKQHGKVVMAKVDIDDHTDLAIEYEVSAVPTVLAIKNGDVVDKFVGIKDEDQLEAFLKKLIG
UniProt P70188: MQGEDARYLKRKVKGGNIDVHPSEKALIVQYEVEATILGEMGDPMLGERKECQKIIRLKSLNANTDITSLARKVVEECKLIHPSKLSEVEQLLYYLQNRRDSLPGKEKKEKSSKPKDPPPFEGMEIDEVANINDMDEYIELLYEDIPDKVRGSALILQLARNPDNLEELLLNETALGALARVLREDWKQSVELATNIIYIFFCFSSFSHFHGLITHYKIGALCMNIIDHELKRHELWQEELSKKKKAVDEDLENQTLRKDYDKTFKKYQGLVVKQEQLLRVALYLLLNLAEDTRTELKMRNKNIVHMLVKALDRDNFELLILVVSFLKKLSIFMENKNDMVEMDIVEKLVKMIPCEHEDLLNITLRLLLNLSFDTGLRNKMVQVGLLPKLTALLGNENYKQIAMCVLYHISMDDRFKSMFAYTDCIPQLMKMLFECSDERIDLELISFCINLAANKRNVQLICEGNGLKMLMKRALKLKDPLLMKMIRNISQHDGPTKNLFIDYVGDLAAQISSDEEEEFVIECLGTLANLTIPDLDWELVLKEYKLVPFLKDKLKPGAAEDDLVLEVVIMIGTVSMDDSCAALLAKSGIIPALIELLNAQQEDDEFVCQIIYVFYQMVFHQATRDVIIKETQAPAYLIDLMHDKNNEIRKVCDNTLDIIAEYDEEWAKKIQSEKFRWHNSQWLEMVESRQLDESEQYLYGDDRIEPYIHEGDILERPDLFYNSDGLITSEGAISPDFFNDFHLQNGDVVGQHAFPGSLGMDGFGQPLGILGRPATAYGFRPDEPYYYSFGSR
UniProt P97393, whole entry: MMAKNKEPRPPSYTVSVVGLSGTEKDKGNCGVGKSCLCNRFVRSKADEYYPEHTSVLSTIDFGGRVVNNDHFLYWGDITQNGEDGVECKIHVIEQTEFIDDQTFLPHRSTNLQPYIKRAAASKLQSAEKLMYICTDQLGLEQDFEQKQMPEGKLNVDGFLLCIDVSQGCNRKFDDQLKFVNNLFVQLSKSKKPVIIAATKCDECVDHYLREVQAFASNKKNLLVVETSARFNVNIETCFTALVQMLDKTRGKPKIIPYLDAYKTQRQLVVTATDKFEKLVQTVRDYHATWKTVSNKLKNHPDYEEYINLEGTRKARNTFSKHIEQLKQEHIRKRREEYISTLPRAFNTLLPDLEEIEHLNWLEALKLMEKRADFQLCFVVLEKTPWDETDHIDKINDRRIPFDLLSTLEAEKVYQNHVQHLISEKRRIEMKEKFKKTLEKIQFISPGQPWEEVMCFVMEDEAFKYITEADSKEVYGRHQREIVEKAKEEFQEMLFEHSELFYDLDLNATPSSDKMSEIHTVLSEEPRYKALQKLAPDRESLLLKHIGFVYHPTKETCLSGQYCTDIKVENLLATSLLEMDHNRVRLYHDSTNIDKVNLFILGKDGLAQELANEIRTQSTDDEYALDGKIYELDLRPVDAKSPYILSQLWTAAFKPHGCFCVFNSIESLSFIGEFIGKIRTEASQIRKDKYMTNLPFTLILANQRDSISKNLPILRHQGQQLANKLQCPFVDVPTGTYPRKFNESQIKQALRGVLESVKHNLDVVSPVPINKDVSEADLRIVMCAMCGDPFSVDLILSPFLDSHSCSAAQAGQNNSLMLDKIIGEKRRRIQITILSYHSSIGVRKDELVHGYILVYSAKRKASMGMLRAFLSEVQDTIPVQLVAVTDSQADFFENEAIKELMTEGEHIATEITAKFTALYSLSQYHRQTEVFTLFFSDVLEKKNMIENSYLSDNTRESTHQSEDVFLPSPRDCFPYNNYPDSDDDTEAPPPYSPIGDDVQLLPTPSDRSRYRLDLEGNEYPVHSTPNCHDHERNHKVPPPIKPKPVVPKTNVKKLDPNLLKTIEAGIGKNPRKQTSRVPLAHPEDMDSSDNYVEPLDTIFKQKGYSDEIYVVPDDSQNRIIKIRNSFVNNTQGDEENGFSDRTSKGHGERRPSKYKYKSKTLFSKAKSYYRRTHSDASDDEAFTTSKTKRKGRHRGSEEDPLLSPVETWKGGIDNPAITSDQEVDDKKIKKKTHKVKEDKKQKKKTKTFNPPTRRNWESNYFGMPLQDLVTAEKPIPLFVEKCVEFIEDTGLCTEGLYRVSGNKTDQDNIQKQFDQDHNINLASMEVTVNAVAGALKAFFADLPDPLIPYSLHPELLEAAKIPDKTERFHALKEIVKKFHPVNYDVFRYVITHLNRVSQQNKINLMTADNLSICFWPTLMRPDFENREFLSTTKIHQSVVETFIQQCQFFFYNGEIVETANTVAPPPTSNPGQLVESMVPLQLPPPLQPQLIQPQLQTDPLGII
UniProt P70122: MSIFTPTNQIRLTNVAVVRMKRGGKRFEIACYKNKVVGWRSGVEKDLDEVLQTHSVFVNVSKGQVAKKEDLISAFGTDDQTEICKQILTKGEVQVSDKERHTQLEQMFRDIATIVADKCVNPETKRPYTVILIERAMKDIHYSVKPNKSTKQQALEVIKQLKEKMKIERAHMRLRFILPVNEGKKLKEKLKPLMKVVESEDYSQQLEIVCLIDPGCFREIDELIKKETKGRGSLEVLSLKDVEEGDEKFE
UniProt P97460: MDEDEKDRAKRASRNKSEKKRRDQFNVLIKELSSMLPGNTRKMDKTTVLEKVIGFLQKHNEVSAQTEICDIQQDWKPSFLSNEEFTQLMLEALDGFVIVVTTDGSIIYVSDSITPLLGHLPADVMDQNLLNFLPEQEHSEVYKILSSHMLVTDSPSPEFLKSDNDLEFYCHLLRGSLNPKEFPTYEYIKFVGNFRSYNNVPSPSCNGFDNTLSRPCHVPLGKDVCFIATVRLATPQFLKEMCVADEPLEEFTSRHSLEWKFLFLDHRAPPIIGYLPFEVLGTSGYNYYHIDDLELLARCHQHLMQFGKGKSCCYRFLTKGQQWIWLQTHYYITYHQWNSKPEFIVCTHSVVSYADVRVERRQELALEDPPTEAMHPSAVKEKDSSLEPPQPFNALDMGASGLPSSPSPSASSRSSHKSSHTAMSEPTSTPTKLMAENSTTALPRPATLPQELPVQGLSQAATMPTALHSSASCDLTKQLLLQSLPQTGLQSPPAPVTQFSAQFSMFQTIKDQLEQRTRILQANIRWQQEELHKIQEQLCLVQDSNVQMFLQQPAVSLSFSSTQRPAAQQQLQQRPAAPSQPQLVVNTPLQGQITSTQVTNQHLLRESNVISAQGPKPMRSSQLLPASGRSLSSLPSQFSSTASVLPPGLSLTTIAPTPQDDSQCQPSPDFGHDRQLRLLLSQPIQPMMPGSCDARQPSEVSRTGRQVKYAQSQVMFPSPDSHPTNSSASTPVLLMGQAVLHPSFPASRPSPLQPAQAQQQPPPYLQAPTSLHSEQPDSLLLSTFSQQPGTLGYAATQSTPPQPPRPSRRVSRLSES
UniProt P79457, whole entry: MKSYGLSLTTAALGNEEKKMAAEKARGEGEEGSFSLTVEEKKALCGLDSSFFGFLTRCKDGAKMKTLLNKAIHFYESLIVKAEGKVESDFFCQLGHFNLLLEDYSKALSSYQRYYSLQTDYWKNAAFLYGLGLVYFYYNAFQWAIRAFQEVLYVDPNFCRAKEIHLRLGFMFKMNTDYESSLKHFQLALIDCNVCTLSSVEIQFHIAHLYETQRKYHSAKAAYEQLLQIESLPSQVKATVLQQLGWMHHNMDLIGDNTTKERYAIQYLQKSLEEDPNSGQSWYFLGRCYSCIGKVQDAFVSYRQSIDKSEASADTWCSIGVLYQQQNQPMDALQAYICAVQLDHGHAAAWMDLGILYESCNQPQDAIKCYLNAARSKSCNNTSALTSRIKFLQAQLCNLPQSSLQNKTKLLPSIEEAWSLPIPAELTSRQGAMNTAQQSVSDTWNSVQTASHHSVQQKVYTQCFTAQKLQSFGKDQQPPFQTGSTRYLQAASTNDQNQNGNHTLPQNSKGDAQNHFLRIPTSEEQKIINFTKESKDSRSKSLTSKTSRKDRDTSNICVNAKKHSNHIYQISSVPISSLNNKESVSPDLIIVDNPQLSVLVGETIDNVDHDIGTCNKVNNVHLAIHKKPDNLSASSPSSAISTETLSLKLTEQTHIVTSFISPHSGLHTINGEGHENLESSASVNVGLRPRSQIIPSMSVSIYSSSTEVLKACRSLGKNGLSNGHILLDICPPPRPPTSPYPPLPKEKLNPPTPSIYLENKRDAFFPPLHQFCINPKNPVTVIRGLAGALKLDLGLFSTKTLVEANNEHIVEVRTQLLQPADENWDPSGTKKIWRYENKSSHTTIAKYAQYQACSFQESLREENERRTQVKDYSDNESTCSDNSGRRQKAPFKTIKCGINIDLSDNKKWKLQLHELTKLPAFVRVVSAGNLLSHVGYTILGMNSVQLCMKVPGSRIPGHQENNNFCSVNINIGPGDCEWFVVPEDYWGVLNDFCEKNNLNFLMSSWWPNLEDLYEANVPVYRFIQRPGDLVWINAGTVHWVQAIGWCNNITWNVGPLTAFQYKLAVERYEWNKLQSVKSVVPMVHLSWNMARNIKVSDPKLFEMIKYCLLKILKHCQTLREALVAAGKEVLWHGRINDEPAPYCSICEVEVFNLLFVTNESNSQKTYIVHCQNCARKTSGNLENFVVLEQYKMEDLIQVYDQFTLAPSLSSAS
UniProt P97478: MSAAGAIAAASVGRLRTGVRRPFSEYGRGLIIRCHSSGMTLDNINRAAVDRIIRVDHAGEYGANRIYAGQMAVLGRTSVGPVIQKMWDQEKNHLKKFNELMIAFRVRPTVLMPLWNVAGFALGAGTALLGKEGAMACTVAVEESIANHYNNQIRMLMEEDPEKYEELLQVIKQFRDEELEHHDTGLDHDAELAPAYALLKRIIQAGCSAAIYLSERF
UniProt P63330, whole entry: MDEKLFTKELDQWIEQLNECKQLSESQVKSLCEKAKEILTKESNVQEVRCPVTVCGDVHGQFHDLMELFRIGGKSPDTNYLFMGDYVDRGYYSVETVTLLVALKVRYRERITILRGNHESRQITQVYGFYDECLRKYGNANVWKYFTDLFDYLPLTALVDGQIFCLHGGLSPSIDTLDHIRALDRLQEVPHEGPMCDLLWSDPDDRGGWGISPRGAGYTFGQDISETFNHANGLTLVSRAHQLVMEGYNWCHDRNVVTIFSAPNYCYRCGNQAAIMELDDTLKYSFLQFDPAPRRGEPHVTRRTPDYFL
UniProt P70388: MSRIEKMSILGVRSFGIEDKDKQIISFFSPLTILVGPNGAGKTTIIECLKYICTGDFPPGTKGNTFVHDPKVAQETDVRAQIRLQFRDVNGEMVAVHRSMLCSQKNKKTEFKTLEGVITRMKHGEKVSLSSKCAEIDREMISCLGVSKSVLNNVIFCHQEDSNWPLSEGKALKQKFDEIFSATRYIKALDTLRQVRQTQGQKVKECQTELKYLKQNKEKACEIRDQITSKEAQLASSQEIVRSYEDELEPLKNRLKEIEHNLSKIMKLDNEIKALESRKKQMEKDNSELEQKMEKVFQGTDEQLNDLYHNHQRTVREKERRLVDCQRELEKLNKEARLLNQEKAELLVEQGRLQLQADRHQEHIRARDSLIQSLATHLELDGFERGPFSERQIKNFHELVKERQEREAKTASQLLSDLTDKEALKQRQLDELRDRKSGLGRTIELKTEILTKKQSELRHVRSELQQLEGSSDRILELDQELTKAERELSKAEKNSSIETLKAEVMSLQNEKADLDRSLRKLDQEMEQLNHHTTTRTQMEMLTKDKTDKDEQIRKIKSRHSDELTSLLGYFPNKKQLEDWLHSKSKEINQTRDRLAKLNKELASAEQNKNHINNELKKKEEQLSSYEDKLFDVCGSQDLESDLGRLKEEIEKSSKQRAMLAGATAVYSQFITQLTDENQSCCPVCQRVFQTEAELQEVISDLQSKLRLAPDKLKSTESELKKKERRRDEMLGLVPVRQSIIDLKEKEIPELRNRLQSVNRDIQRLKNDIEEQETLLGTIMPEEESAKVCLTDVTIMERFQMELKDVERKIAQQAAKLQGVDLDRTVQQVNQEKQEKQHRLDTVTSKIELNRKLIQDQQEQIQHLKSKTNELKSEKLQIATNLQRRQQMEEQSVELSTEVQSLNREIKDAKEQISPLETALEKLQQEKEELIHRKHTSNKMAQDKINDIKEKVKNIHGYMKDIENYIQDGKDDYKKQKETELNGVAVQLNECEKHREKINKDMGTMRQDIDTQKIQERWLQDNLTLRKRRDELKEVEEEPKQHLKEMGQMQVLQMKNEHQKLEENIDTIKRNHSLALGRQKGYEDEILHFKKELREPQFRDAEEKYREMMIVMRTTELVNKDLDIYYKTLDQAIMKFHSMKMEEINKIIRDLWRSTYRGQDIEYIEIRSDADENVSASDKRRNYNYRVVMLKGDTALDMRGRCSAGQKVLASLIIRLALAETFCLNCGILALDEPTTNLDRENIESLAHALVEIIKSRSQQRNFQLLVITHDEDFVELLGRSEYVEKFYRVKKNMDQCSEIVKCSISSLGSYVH

This is one part of the list. Most entries show no effect beyond the scatter of the controls.

Compound in this assay: CN[C@@H]1C[C@H]2O[C@@](C)([C@@H]1OC)n1c3ccccc3c3c4c(c5c6ccccc6n2c5c31)C(=O)NC4 [staurosporine]
Description: log2 fold change of tryptic peptide abundance, ligand vs vehicle (limited proteolysis) (log2 ratio); higher = more trypsin-susceptible (destabilized). The settings on record: ligand concentration: 20 uM; sample: mouse liver crude lysate; replicate design: treated separately.
On to “UniProt P97717 (peptide sequence: SNMPLAPGHF, peptide start residue: 505)”, for which the log2 fold change was -0.188. With “UniProt P97493 (peptide sequence: FVGIKDEDQLEAFLKK, peptide start residue: 148)”, the log2 fold change turned out to be 0.243. For the target “UniProt P70429 (peptide sequence: ATSQPPNSSEAGR, peptide start residue: 309)”, the log2 fold change was -0.197. For the target “UniProt P70188 (peptide sequence: AVDEDLENQTLRK, peptide start residue: 247)”, the log2 fold change is -0.291.

For “UniProt P97393 (peptide sequence: ESTHQSEDVFLPSPR, peptide start residue: 956)”, the log2 fold change is -0.166. Regarding “UniProt P97401 (peptide sequence: ASLVNIPR, peptide start residue: 225)”, the log2 fold change was found to be 0.0724. On to “UniProt P70227 (peptide sequence: ERPSDEEGFLQPHGEK, peptide start residue: 1149)”, for which the log2 fold change came out at 0.632. With “UniProt P70122 (peptide sequence: FILPVNEGKK, peptide start residue: 176)”, the log2 fold change was 0.348.

For “UniProt P97760 (peptide sequence: ITELTEENVK, peptide start residue: 11)”, the log2 fold change turned out to be 0.388. On to “UniProt Q00612 (peptide sequence: EKPQPIPYVYGSR, peptide start residue: 475)”, for which the log2 fold change was -0.27. On to “UniProt P63248 (peptide sequence: LAGLDINKTEGEDDGQR, peptide start residue: 42)”, for which the log2 fold change was found to be 0.184. For the target “UniProt P97460 (peptide sequence: LATPQFLK, peptide start residue: 232)”, the log2 fold change turned out to be 0.092. The result for “UniProt P79457 (peptide sequence: VYTQCFTAQK, peptide start residue: 459)” reads 0.373; that for “UniProt P70677 (peptide sequence: SGTDVDAANLR, peptide start residue: 65)”, -0.282; that for “UniProt Q00724 (peptide sequence: YWGVASFLQR, peptide start residue: 108)”, -0.143. “UniProt Q02248 (peptide sequence: CTAGTLHNLSHHR, peptide start residue: 213)”: the log2 fold change was -0.569. For the target “UniProt P97478 (peptide sequence: VDHAGEYGANR, peptide start residue: 55)”, the log2 fold change was -0.193. In the case of “UniProt P97822 (peptide sequence: DLSTVEALQNLK, peptide start residue: 102)”, the log2 fold change is -0.171. Regarding “UniProt P97372 (peptide sequence: LLALLALVKPEVWTLKEK, peptide start residue: 100)”, the log2 fold change is 0.512. For the target “UniProt P98197 (peptide sequence: GADSSIFPR, peptide start residue: 564)”, the log2 fold change was -0.152.

Turning to “UniProt P97770 (peptide sequence: STLAYGMLR, peptide start residue: 307)”, the log2 fold change is -0.228. To “UniProt P63330 (peptide sequence: QLSESQVK, peptide start residue: 22)” belongs -0.442; to “UniProt P70388 (peptide sequence: NEHQKLEENIDTIKR, peptide start residue: 1055)”, 0.455; to “UniProt P81069 (peptide sequence: DVVELLIK, peptide start residue: 118)”, 0.251. For the target “UniProt P70404 (peptide sequence: LGDGLFLQCCR, peptide start residue: 227)”, the log2 fold change stood at 0.0827.
